According to PMC9787943, “Calcium-Dependent Interplay of Lithium and Tricyclic Antidepressants, Amitriptyline and Desipramine, on N-methyl-D-aspartate Receptors” (International Journal of Molecular Sciences, 2022):

System: T1, native di- and triheteromeric NMDARs composed of GluN1, GluN2A, and GluN2B subunits
T1 construct: gene Grin1; native receptors in primary cultured cortical neurons (from fetal brains of 17-day pregnant rats, 10-14 days in culture); mixture of di- and triheteromers, heterotetramers with two GluN1 (known biology)
Experiment: whole-cell patch clamp of cultured neurons, NMDA-elicited currents
Type: cell-based, Rattus norvegicus
Settings: Na+ solution without Li+, 2 mM Ca2+, 100 μM NMDA + 30 μM glycine, -70 mV, pH 7.2-7.4, 22-25 °C; mode: open-channel block, Ca2+-independent
Text: whole-cell patch clamp of cultured neurons, NMDA-elicited currents on native di- and triheteromeric NMDARs composed of GluN1, GluN2A, and GluN2B subunits

SMILES: CN(C)CCCN1c2ccccc2CCc2ccc(Cl)cc21 [Clomipramine]
- IC50: 72 ± 12 µM
